According to article PMC4685197:
The exact form of at least one protein or probe is not confirmed. At least one verdict rests on a figure or table, not on a statement of the authors.

The chains behind the UniProt entries cited, without tags or fusion partners. Residues count along the entry.
UniProt P16422, 24-314: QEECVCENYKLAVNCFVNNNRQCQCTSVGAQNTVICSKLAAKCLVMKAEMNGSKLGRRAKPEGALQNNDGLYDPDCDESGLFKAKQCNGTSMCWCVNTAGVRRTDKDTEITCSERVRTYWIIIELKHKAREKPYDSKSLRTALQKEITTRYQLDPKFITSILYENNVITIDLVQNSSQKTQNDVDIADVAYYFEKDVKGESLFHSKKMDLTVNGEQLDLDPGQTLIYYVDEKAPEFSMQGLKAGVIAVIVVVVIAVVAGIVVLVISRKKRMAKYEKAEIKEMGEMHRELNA

Legend:
[1] = biological target: EpCAM (epithelial cell adhesion molecule), endogenous in tissue sections (human (patient tissue)) (UniProt P16422); test: immunofluorescence co-staining of tissue sections with antibody; conditions: 250 nM aptamer, no competition, Deparaffinized, antigen-retrieved tissue sections, binding buffer (composition not given), 250 nM aptamer for 1 h (Cy3, temperature not stated) or 30 min at 37 C, native protein, single-stranded DNA
[2] = biological target: EpCAM (epithelial cell adhesion molecule), endogenous in tissue sections (human (patient tissue)) (UniProt P16422); test: immunofluorescence staining of tissue sections; conditions: 250 nM aptamer, sections blocked with 1 uM random sequence, random-sequence pool negative; 3' (PEG)3 spacer; Deparaffinized, antigen-retrieved tissue sections; binding buffer (composition not given); 250 nM aptamer for 1 h (Cy3, temperature not stated) or 30 min at 37 C; native protein; label: 3' Cy3; single-stranded DNA

Row | Sequence | binding result ([1]; anti-EpEX (MOC-31) pre-bound) | binding result ([1]; anti-EpICD (E144) pre-bound) | binding result [2]
1 | CACTACAGAGGTTGCGTCTGTCCCACGTTGTCATGGGGGGTTGGCCTG [SYL3C-FITC] | binds | binds | –
2 | CACTACAGAGGTTGCGTCTGTCCCACGTTGTCATGGGGGGTTGGCCTG [SYL3C-Cy3] | – | – | binds
